From patent US20260215420A1 (Solasta Bio Limited, priority 2022, published 2026) come the findings set out here.

This data set is described as follows: general procedure: Fmoc solid-phase peptide synthesis; Tentagel S RAM (0.22 mmol/g); Rink Amide ProTide LL (0.18 mmol/g) for SB-P-101; DIC/Oxyma. To be noted: whole synthesis.
Where [1] appears, read: scale of the general procedure 0.1 mmol, 0.2 mmol or 0.5 mmol.

H-KVKFSAWG-NH2: for the setting “scale 0.1 mmol”, the “final purity (method not given)” value is “Purity=91%” and the isolated yield result was “Yield=42%”.
Consider H-PAFSSWG-NH2, for which, under setting [1], the “final purity (method not given)” value was “Purity=91%” and the isolated yield result was “Yield=41%”.
As to H-RQKTVFSSWG-NH2, under setting [1], the “final purity (method not given)” value was “Purity=90%” and the isolated yield result was “Yield=41%”.
